From publication PMC7819943, “Rice protein-binding microarrays: a tool to detect cis-acting elements near promoter regions in rice”
The other results are listed elsewhere or left out.

target: T1, OsSMF1 (Oryza sativa, UniProt Q6ZLB0 1-436); assay: protein-binding microarray (RPBM); PBS, 2% BSA, 51.3 ng/ul salmon testes DNA, 50 uM zinc acetate, 200 nM TF, 25 C, 1 h; high values mean tight binding; conditions: protein: recombinant; tags: N-terminal polyhistidine and DsRed monomer fusion (pET32a); chain copies: 2; label: CyDye5-dUTP incorporated in the synthesized complementary strand; 3' TTTTT single-stranded linker to array surface; dsDNA, one strand shown
T1 sequence: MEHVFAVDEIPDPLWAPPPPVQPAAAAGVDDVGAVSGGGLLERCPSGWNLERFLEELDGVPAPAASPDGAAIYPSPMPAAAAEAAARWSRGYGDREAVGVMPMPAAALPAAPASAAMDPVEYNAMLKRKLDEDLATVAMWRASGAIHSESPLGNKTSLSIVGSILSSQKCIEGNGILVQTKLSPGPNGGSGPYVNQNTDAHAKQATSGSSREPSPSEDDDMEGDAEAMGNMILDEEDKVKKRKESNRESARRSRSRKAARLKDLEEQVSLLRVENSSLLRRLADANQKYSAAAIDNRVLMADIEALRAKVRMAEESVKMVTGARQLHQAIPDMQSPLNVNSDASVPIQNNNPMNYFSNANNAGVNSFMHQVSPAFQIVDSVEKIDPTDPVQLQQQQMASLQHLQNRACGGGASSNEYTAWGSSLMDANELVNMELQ
Procedure, shortened: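 Binding signal is defined as the fluorescence intensity of each feature in arbitrary units, read on an Axon 4000B scanner. Transcription factors with N-terminal polyhistidine and DsRed fusions came from E. coli BL21-CodonPlus and were purified on Ni–NTA. They were incubated at 200 nM for 1 h at 25 °C on a custom Agilent array that had been made double-stranded with Cy5-dUTP, with 50 µM zinc acetate present, and the array was washed.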

Sequence	binding signal
CCGCTCCGGTGATCGGATCCCCACAGCTTTGCGTTTGCACCGGAGTCACCTAGTGCAG	17200 fluorescence intensity (a.u.)
TCCGAGTTCCGTCGGCGTCCGCTCGTCTGTTCCGTTGGTGCGGAGTCACCTAGTGCAG	3290 fluorescence intensity (a.u.)
ACCTTCACGCAGCGGCCTCTCCCCGTGCGCCGCCGTGGCGCGGAGTCACCTAGTGCAG	4260 fluorescence intensity (a.u.)
TTGTGTGTGTGTATCCCCTGTGACACAGTCGTAATCGATGCGGAGTCACCTAGTGCAG	5200 fluorescence intensity (a.u.)
TGTTTAAGTTTGGTGATTTCAATTCTGACCTGTAAATTGTCGGAGTCACCTAGTGCAG	3450 fluorescence intensity (a.u.)
CTCACGAGGGGAGAGGGGAGCACGTGGGCATGGCTGGCACCGGAGTCACCTAGTGCAG	4210 fluorescence intensity (a.u.)
GCAAGTATAACTCTGCTTCCTTCTAATATATTGACGTGTTCGGAGTCACCTAGTGCAG	6260 fluorescence intensity (a.u.)
CCTGCCAATCCCGCCACGTTCTTGCGGCCCAGCCATCCATCGGAGTCACCTAGTGCAG	4220 fluorescence intensity (a.u.)
GTAATAGAAGCATGGGACCTATACACCAGTTGATTATAATCGGAGTCACCTAGTGCAG	25600 fluorescence intensity (a.u.)
CACTGTCCATCCATGGTGGTGGTCAGACAACCCCAGCACACGGAGTCACCTAGTGCAG	3990 fluorescence intensity (a.u.)
GCGACGCATGGACATGTCGCGAGGGCGGGCCGGCCCGTCCCGGAGTCACCTAGTGCAG	4540 fluorescence intensity (a.u.)
AGAGAGTGCTGGGGTGGATGGCGACGATGGCGTGACGGAGCGGAGTCACCTAGTGCAG	5390 fluorescence intensity (a.u.)
GCTACTATCCAAAACAAATGTGCTACTAAAATGAGGTTGACGGAGTCACCTAGTGCAG	16900 fluorescence intensity (a.u.)
TCAGTTTCATCCGACGGTTCTCGTATTTTAGATGATGTGGCGGAGTCACCTAGTGCAG	10800 fluorescence intensity (a.u.)
AATTCTGATAAAATAGGGTTACTAAAAGGTTGACGTTTCACGGAGTCACCTAGTGCAG	3250 fluorescence intensity (a.u.)
CGCGGACCGGCGTGGCCTCGCCGGCCCCGGGCAATGTCCCCGGAGTCACCTAGTGCAG	3470 fluorescence intensity (a.u.)
CCGTTAGCCTCCAACGATCCAAACCGCCTCGTCATAAATACGGAGTCACCTAGTGCAG	3460 fluorescence intensity (a.u.)
ACGTGTGGTTGGTGACACCGAGATCCCGTGTTTAATCCCCCGGAGTCACCTAGTGCAG	4270 fluorescence intensity (a.u.)
ATTGGTATGGTATATTCATACCATAACATAAGAACAATAACGGAGTCACCTAGTGCAG	21200 fluorescence intensity (a.u.)
TTGGAGTCCGTGCTGCAGCTGGCTACAGATCTGTAGCCCGCGGAGTCACCTAGTGCAG	37600 fluorescence intensity (a.u.)
GAGCAGAGGTCGGCGTCGCGGAGGCCACAGGAGACGGCGACGGAGTCACCTAGTGCAG	23700 fluorescence intensity (a.u.)

Three neighbouring entries already listed:
Sequence	binding signal
GTAATAGAAGCATGGGACCTATACACCAGTTGATTATAATCGGAGTCACCTAGTGCAG	25600 fluorescence intensity (a.u.)
CACTGTCCATCCATGGTGGTGGTCAGACAACCCCAGCACACGGAGTCACCTAGTGCAG	3990 fluorescence intensity (a.u.)
GCGACGCATGGACATGTCGCGAGGGCGGGCCGGCCCGTCCCGGAGTCACCTAGTGCAG	4540 fluorescence intensity (a.u.)

(listing goes on)

Sequence	binding signal
TAATAGTTGGTCACGTCATATCCATTGCATGCAGCTCATCCGGAGTCACCTAGTGCAG	5940 fluorescence intensity (a.u.)
GCCGGCGCTGCCCGCAACCGATGCGTCACCCTCCTCACTACGGAGTCACCTAGTGCAG	7720 fluorescence intensity (a.u.)
GAAGGGGCGAGCAAGGAGGGGTGCCACGTAGGATAGCAATCGGAGTCACCTAGTGCAG	6350 fluorescence intensity (a.u.)
ACTGGCTTGAACCGTCATCGTCACGTGCTGCTGAAAAGGGCGGAGTCACCTAGTGCAG	6550 fluorescence intensity (a.u.)
CAAACGATCACCATAGTTGTCATCCTCTGTCACCATAGTTCGGAGTCACCTAGTGCAG	5980 fluorescence intensity (a.u.)
GTATTTTGCATATCAGCCCCTATCTATTTATATGTCAGCCCGGAGTCACCTAGTGCAG	3630 fluorescence intensity (a.u.)
TTTACCGGTACGACACCTGTGCAAGAACACGCCACGTCACCGGAGTCACCTAGTGCAG	23000 fluorescence intensity (a.u.)
CCTCCCACCACTGCGTCATCTCCAGATTCCCTTCTCCTGCCGGAGTCACCTAGTGCAG	5140 fluorescence intensity (a.u.)
AATATACACTTGATTAGTACTAATCAATCCAAAGCAATGACGGAGTCACCTAGTGCAG	28400 fluorescence intensity (a.u.)
GTAAATTGCGTCCACGGTATATAAACTTGGTAGGTGGGTGCGGAGTCACCTAGTGCAG	3230 fluorescence intensity (a.u.)
CTGCCGTTTGGTGGCACGCCCGGCGCTGACTCGGACGGCGCGGAGTCACCTAGTGCAG	7670 fluorescence intensity (a.u.)
TTTCTTTCGCGAACGTGTAAAAGGATTGCATGGCATCCCACGGAGTCACCTAGTGCAG	4080 fluorescence intensity (a.u.)
AATAATCTTGTAATACATATGCATATTATTATGTTCTCACCGGAGTCACCTAGTGCAG	3640 fluorescence intensity (a.u.)
CCAAAGCTGCGCAGCACCCTGAACGGCACCACACCACGGACGGAGTCACCTAGTGCAG	57400 fluorescence intensity (a.u.)
CCAAACACCTCCTTGCTGTCTCACCACAATGCCACTTTACCGGAGTCACCTAGTGCAG	22100 fluorescence intensity (a.u.)
CGCCGTACCGGAGCACGGTGGCTGTCCACGTGGCACCCCGCGGAGTCACCTAGTGCAG	21700 fluorescence intensity (a.u.)
CCATTTCTGATAGTTTTCATCCCTAACGGCATCCACGTGGCGGAGTCACCTAGTGCAG	12900 fluorescence intensity (a.u.)
TAGCTAGTTTAACTCGTACGATGAATCACGCCGAAACACACGGAGTCACCTAGTGCAG	4070 fluorescence intensity (a.u.)
CTCGGAATACGACGGCCCACTCGGCCCAGTACGGGCCCATCGGAGTCACCTAGTGCAG	3480 fluorescence intensity (a.u.)
CAGTGTTCTCCATCAGTAGCAGTATCAGACAACACTTCTTCGGAGTCACCTAGTGCAG	3300 fluorescence intensity (a.u.)
AATCCTAGTCAGCCGTGGGGCCCACGAGAACGATGGCCACCGGAGTCACCTAGTGCAG	5390 fluorescence intensity (a.u.)
